Test results taken from article PMC5442318, “Hundreds of dual-stage antimalarial molecules discovered by a functional gametocyte screen” (Nature Communications, 2017).

Tested on: HepG2 cells
Test: HepG2 cytotoxicity assay
Format: cell-based
Conditions: HepG2 TOX50 / Pf FGAA IC50
In short: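 Once incubation ended, the HepG2 plates were warmed to room temperature for 30 min alongside the CellTiter-Glo reagent. Luminescent signal was developed by reagent addition and stabilized for 10 min before plate reading.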

Cc1cc(F)ccc1-c1nc(NCCCNCCc2ccccc2)nc2c1ccc(=O)n2-c1c(F)cccc1F.O=C(O)C(F)(F)F [TCMDC-141804]
Selectivity ratio: 3.49

Cc1ccc(Cn2ncc(N3CCCNCC3)c(Cl)c2=O)cc1NC(=O)Nc1ccc(-c2ccccc2)cc1 [TCMDC-141924]
Selectivity ratio: 4.53

Cc1c(Cn2ncc(N3CCC(N)CC3)c(Cl)c2=O)cccc1NC(=O)Nc1ccc(-c2ccccc2)cc1.O=C(O)C(F)(F)F [TCMDC-141931]
Selectivity ratio: 20.98

O=C(O)CCSSc1cccc[n+]1[O-] [TCMDC-141973]
Selectivity ratio: 487.84

Nc1nc(N)c2cc(NC(=O)c3ccc(Cl)c(Cl)c3)ccc2n1 [TCMDC-141982]
Selectivity ratio: 1.35

Cl.OC(CNCCCCCCNCC(O)c1ccc(Cl)c(Cl)c1)c1ccc(Cl)c(Cl)c1 (stereo not shown) [TCMDC-141987]
Selectivity ratio: 4.74

Cl.N=C1C=C(N)C(=O)c2ccccc21 [TCMDC-141992]
Selectivity ratio: 0.0437

CCn1c2ccccc2c2cc(C=NN=c3cc(C)[nH]c4ccccc34)ccc21 [TCMDC-142186]
Selectivity ratio: 1.40

CCOc1ccc2c(=NN=Cc3cc(OC)c(OC)cc3OC)cc(C)[nH]c2c1 [TCMDC-142207]
Selectivity ratio: 9.97

Cc1c(N=O)cc(C(C)(C)C)c(O)c1C(=O)Nc1ccc([N+](=O)[O-])cc1Cl [TCMDC-142233]
Selectivity ratio: 1.51

CN(C)CCN1CCN(CCCN2c3ccccc3Sc3ccc(C(F)(F)F)cc32)CC1.Cl [TCMDC-142257]
Selectivity ratio: 14.77

Cl.Nc1c(I)cc(C(=O)Nc2ccc3nc4c(c(N)c3c2)CCCC4)cc1I [TCMDC-142289]
Selectivity ratio: 5.83

O=c1c(NCCCN(Cc2ccc(F)cc2)c2ccccn2)c(NCc2cccnc2)c1=O [TCMDC-142311]
Selectivity ratio: >277.78
